Results from patent US20040137000A1.
Residue numbers refer to the chain shown, from its start. No constants are given. Whether binding was seen depends on the method and setting. Some binding calls cover weakened binding; strength is not graded here.

What was measured:
[1] = biological target: recombinant soluble CD4 (rsCD4) (UniProt P01730); assay: ELISA, rsCD4 coated on the plate
[2] = biological target: recombinant soluble CD4 (rsCD4) (UniProt P01730); assay: ELISA on rsCD4
[3] = biological target: recombinant soluble CD4 (rsCD4) (UniProt P01730); assay: ELISA, rsCD4 coated at 0.25 µg/ml, peroxidase anti-mouse

B1: chimeric B4 antibody (antibody, human IgG1, V domains shown)
VH: QVQLQQSGPELVKPGASVRMSCKASGYTFTDYVIHWVKQRTGQGLEWIGEIYPGSGSAYSNAKFKDKATLTADKSSNTAYMQLSSLTSEDSAVYFCARRGNGTGFAYWGQGTLVTVSA
VL: DIVLTQSPASLAVSLGQRATISCKAGQSVDYDGDSYMNWYQQKPGQPPKLLIYVASNLESGIPARFSGSGSGTDFTLNIHPVEEEDAATYYCQQSYKDPLTFGAGTKLELK
binding [1]: binds

B2: deimmunized B4 antibody DIVHv.2/VKv.3 produced by NS0 cells (antibody, human IgG1, V domains shown)
VH: QVQLVQSGAEVKKPGASVKVSCKASGYTFTDYVIHWVRQATGQGLEWIGEIYPGSGSAYSNAKFKDRVTITADKSTNTAYMELRSLRSDDTAVYFCARRGNGTGFAYWGQGTLVTVSS
VL: DIVLTQSPASLAVSPGQRATITCKAGQSVDYDGDSYMNWYQQKPGQPPKLLIYVASNLESGIPSRFSGSGSGTDFTLTINPVEENDTATYYCQQSYKDPLAFGPGTKVEIK
binding [2]: binds

B3: deimmunized B4 antibody DIVHv.3/VKv.1 produced by NS0 cells (antibody, human IgG1, V domains shown)
VH: B2 VH with R38K
VL: B1 VL with S22T, E85N, A104Q, L110I
binding [2]: binds

B4: deimmunized B4 antibody DIVHv.3/VKv.2 produced by NS0 cells (antibody, human IgG1, V domains shown)
VH: B2 VH with R38K
VL: B2 VL with A101T, P104Q
binding [2]: binds

B5: deimmunized B4 antibody DIVHv.3/VKv.3 produced by NS0 cells (antibody, human IgG1, V domains shown)
VH: B2 VH with R38K
VL: B2 VL
binding [2]: binds

B6: deimmunized B4 antibody DIVHv.4/VKv.1 produced by NS0 cells (antibody, human IgG1, V domains shown)
VH: B2 VH with A62S
VL: B1 VL with S22T, E85N, A104Q, L110I
binding [2]: binds

B7: deimmunized B4 antibody DIVHv.4/VKv.2 produced by NS0 cells (antibody, human IgG1, V domains shown)
VH: B2 VH with A62S
VL: B2 VL with A101T, P104Q
binding [2]: binds

B8: deimmunized B4 antibody DIVHv.4/VKv.3 produced by NS0 cells (antibody, human IgG1, V domains shown)
VH: B2 VH with A62S
VL: B2 VL
binding [2]: binds

B9: murine monoclonal antibody B4 (antibody, V domains shown)
VH: B1 VH
VL: B1 VL
binding [3]: binds

B10: deimmunized B4 antibody DIVHv.2/VKv.1 produced by NS0 cells (antibody, human IgG1, V domains shown)
VH: B2 VH
VL: B1 VL with S22T, E85N, A104Q, L110I
binding [2]: binds

B11: deimmunized B4 antibody DIVHv.2/VKv.2 produced by NS0 cells (antibody, human IgG1, V domains shown)
VH: B2 VH
VL: B2 VL with A101T, P104Q
binding [2]: binds
